Measurements taken from publication PMC5600724.

Tests used:
[1] = target: recombinant Plasmodium vivax apical membrane antigen 1 ectodomain (rPvAMA1) (Plasmodium vivax); assay: phage display biopanning; three rounds on refolded rPvAMA1 (50 ug) coated directly on a 96-well plate; Ph.D.-12 library (~10^11 particles) in TBST, 1 h room temperature; elution with 0.2 M glycine-HCl pH 2.2; clones sequenced after round 3; both purified
[2] = target: recombinant Plasmodium vivax apical membrane antigen 1 ectodomain (rPvAMA1) (Plasmodium vivax); assay: far-Western, overlay or dot blot; Western blot binding assay: 10 ug rPvAMA1 run on non-reducing 12% SDS-PAGE, blotted on nitrocellulose strips, probed with ~10^9 phage particles; HRP anti-M13 antibody, Opti-4CN; both purified

| Binder | binding [1] | binding [2] |
| --- | --- | --- |
| DLTFTVNPLSKA [PdV1 phage-displayed dodecapeptide] | binds | binds |
| WHWSWWNPNQLT [PdV2 phage-displayed dodecapeptide] | binds | binds weakly |
| TSVSYINNRHNL [PdV3 phage-displayed dodecapeptide] | binds | binds weakly |

These are yes or no findings as the source states them, for the method shown. A result given as binding can be weak or reduced; the word gives no strength.
